These are yes or no findings as the source states them, for the method shown. In cells and extracts the contact can be indirect. Sequences can lack the tags named with a protein.
Biological target: T1, Myc-KIRREL1-HA (full-length KIRREL1) (UniProt Q96J84)
T1 sequence: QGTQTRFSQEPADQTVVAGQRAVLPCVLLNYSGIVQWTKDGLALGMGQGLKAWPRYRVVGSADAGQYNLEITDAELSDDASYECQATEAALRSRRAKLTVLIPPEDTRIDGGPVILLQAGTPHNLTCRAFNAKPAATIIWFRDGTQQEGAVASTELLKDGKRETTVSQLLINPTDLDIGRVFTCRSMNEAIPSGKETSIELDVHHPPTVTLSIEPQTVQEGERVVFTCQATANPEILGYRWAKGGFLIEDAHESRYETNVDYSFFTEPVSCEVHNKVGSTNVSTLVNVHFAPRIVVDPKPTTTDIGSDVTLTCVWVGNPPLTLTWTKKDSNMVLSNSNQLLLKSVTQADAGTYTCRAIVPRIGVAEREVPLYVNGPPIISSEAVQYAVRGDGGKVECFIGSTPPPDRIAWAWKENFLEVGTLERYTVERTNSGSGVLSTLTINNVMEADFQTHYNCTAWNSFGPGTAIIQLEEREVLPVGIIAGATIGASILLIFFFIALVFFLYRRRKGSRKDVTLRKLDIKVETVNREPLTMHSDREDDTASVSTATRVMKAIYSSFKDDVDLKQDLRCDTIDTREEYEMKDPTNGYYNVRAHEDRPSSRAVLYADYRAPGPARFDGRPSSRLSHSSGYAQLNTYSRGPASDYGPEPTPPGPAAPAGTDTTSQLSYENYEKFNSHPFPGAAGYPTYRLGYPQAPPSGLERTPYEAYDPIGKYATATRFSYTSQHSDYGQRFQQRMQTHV
Experiment: co-IP; HEK293T cells co-transfected; NP40 lysis buffer; cleared lysates incubated with anti-Flag tag or anti-Myc tag magnetic beads overnight at 4 °C; beads washed four times; immunoblot

binding: no binding
Substance: Flag-tagged MOB1

Source: PMC8854406
